According to article PMC8617944, “Preclinical Pharmacokinetics and Acute Toxicity in Rats of 5-{[(2E)-3-Bromo-3-carboxyprop-2-enoyl]amino}-2-hydroxybenzoic Acid: A Novel 5-Aminosalicylic Acid Derivative with Potent Anti-Inflammatory Activity” (Molecules, 2021):
Where “and” joins values, the source holds several entries; their conditions need not be identical. Equal values may be shown once. Further values from the same series stand in other lists.

How the values were obtained:
[1] = Distribution of C1 in tissues; assay type: in vivo, Wistar rats; details: p.o. 75 mg/kg, individual rats
Protocol: Fifteen male Wistar rats were distributed in five groups (n = 3) and rats were orally administered C1 at a single dose of 75 mg/kg. Subsequently, a group of animals was sacrificed (n = 3) at 10, 30, 90, 180, and 360 min. […] All tissues and organs were weighed on an analytical balance and immediately processed. Each tissue sample was homogenized with saline solution in a 1:3 (wt/v) ratio. The preparation process for analysis was the same as described above for plasma samples [57] (File S8).

[2] = Pharmacokinetic profiles after p.o., i.p. and i.v. administration; assay type: in vivo, Wistar rats; details: plasma, individual rats
Protocol: On the same day as C1 administration, the rats (three groups, n = 6) were previously cannulated for compound administration by the p.o., i.p., and i.v. routes. A 24 G catheter was placed in the right lateral tail vein for blood collection. A first group of rats received a single dose of 50 mg/kg applied p.o. with a 20 G gavage needle. A dose of 75 mg/kg of C1 was injected i.p. into the rats in the second group. A single dose of 50 mg/kg was given i.v. to the third group by means of another catheter previously placed in the left lateral tail vein. The doses used in this study were selected based on previous pharmacokinetic studies reported in rats for 5-ASA [60] or for derivatives of this compound [61]. Animals were provided with the standard diet 4 h after dosing. […] The volume of blood removed was supplemented with an equal volume of 0.9% sodium chloride solution. The blood samples were centrifuged at 8000 rpm for 15 min to harvest 100 μL of plasma.
Plasma samples were processed immediately. Briefly, 450 µL of acetonitrile was added to 100 µL of plasma and vortexed for 5 min. Subsequently, 450 µL of methanol was added, and the sample was vortexed again, followed by centrifugation to precipitate the proteins. Finally, 10 µL of the supernatant were used for evaluation of the plasma concentration of C1 by RP-HPLC with the UV detection method, previously validated for the pharmacokinetic and complementary assays herein performed.
The plasma concentration–time data were plotted. […] Pharmacokinetic parameters of C1 were calculated on Kinetica 5.0 software (Adept Scientific Ltd), including the maximum plasma concentration (Cmax), time to maximum plasma concentration (tmax), elimination half-life (t1/2e), the area under the plasma concentration-time curve from time zero to the last measurable concentration (AUC0-t), the area under the plasma concentration-time curve from time zero to infinity (AUCtot), mean residence time (MRT), clearance (CL), and apparent volume of distribution (Vd).

O=C(/C=C(/Br)C(=O)O)Nc1ccc(O)c(C(=O)O)c1 [Compound C1, 5-{[(2E)-3-bromo-3-carboxyprop-2-enoyl]amino}-2-hydroxybenzoic acid]
Concentration (µg/mL) at 10 minutes, Rat 1-3 ([1]; Brain): 2.8 µg/mL and 4.3 µg/mL
Concentration (µg/mL) at 6 h, Rat 1-3 ([1]; Brain): 2.2 µg/mL
Concentration (µg/mL) at 6 h, Rat 1-3 ([1]; Colon): 2.2 µg/mL and 12.6 µg/mL and 3.2 µg/mL
Concentration (µg/mL) at 6 h, Rat 1-3 ([1]; Hearth): 3.4 µg/mL and 2.3 µg/mL
Concentration (µg/mL) at 6 h, Rat 1-3 ([1]; Kidney): 2.5 µg/mL and 5.7 µg/mL and 4.1 µg/mL
Concentration (µg/mL) at 6 h, Rat 1-3 ([1]; Liver): 2.5 µg/mL and 6.3 µg/mL and 3.6 µg/mL
Concentration (µg/mL) at 6 h, Rat 1-3 ([1]; Lung): 3.0 µg/mL and 4.3 µg/mL and 11.5 µg/mL
Concentration (µg/mL) at 10 minutes, Rat 1-3 ([1]; Muscle): 3.8 µg/mL and 5.6 µg/mL
Concentration (µg/mL) at 6 h, Rat 1-3 ([1]; Muscle): 0.551 µg/mL and 2.6 µg/mL and 4.4 µg/mL
Concentration (µg/mL) at 10 minutes, Rat 1-3 ([1]; Small intestine): 34.8 µg/mL and 19.7 µg/mL and 40.1 µg/mL
Concentration (µg/mL) at 6 h, Rat 1-3 ([1]; Small intestine): 14.1 µg/mL and 7.2 µg/mL
Concentration (µg/mL) at 6 h, Rat 1-3 ([1]; Spleen): 5.0 µg/mL and 14.0 µg/mL and 4.5 µg/mL
Concentration (µg/mL) at 6 h, Rat 1-3 ([1]; Stomach): 2.6 µg/mL and 7.4 µg/mL and 4.1 µg/mL
Concentration (µg/mL) at 10 minutes, Rat 1-3 ([1]; Testis): 13.3 µg/mL and 5.7 µg/mL and 10.7 µg/mL
Concentration (µg/mL) at 6 h, Rat 1-3 ([1]; Testis): 3.1 µg/mL and 4.1 µg/mL
Concentration (µg/mL), Rat 1-6 ([2]; i.g. (p.o.) 50 mg/kg, 5 min, 50 mg/kg): 2.23 µg/mL and 1.07 µg/mL and 2.65 µg/mL and 2.43 µg/mL and 2.84 µg/mL and 1.84 µg/mL
Concentration (µg/mL), Rat 1-6 ([2]; i.g. (p.o.) 50 mg/kg, 10 min, 50 mg/kg): 2.41 µg/mL and 1.06 µg/mL and 2.91 µg/mL and 2.57 µg/mL and 2.53 µg/mL and 1.81 µg/mL
Concentration (µg/mL), Rat 1-6 ([2]; i.g. (p.o.) 50 mg/kg, 20 min, 50 mg/kg): 1.98 µg/mL and 2.91 µg/mL and 2.71 µg/mL and 3.24 µg/mL and 2.26 µg/mL
Concentration (µg/mL), Rat 1-6 ([2]; i.g. (p.o.) 50 mg/kg, 30 min, 50 mg/kg): 2.63 µg/mL and 1.64 µg/mL and 2.22 µg/mL and 2.82 µg/mL and 3.67 µg/mL and 1.75 µg/mL
Concentration (µg/mL), Rat 1-6 ([2]; i.g. (p.o.) 50 mg/kg, 45 min, 50 mg/kg): 1.76 µg/mL and 1.27 µg/mL and 2.20 µg/mL and 2.25 µg/mL and 3.51 µg/mL and 1.69 µg/mL
Concentration (µg/mL), Rat 1-6 ([2]; i.g. (p.o.) 50 mg/kg, 60 min, 50 mg/kg): 1.97 µg/mL and 1.30 µg/mL and 2.11 µg/mL and 2.26 µg/mL and 3.65 µg/mL and 1.58 µg/mL
Concentration (µg/mL), Rat 1-6 ([2]; i.g. (p.o.) 50 mg/kg, 90 min, 50 mg/kg): 0.86 µg/mL and 1.02 µg/mL and 1.49 µg/mL and 1.86 µg/mL and 4.54 µg/mL and 1.32 µg/mL
Concentration (µg/mL), Rat 1-6 ([2]; i.g. (p.o.) 50 mg/kg, 120 min, 50 mg/kg): 0.58 µg/mL and 0.72 µg/mL and 1.96 µg/mL and 1.41 µg/mL and 3.18 µg/mL and 1.20 µg/mL
Concentration (µg/mL), Rat 1-6 ([2]; i.g. (p.o.) 50 mg/kg, 180 min, 50 mg/kg): 0.00 µg/mL and 0.72 µg/mL and 0.67 µg/mL and 1.09 µg/mL and 2.26 µg/mL and 1.22 µg/mL
Concentration (µg/mL), Rat 1-6 ([2]; i.g. (p.o.) 50 mg/kg, 240 min, 50 mg/kg): 0.00 µg/mL (3×) and 1.10 µg/mL and 1.74 µg/mL and 1.15 µg/mL
Concentration (µg/mL), Rat 1-6 ([2]; i.g. (p.o.) 50 mg/kg, 300 min, 50 mg/kg): 0.00 µg/mL (3×) and 0.92 µg/mL and 1.45 µg/mL and 0.62 µg/mL
Concentration (µg/mL), Rat 1-6 ([2]; i.g. (p.o.) 50 mg/kg, 360 min, 50 mg/kg): 0.00 µg/mL (4×) and 0.91 µg/mL and 1.13 µg/mL
Concentration (µg/mL), Rat 1-6 ([2]; i.g. (p.o.) 50 mg/kg, 540 min, 50 mg/kg): 0.00 µg/mL (5×) and 0.82 µg/mL
Concentration (µg/mL), Rat 1-6 ([2]; i.g. (p.o.) 50 mg/kg, 600 min): 0.00 µg/mL
Concentration (µg/mL), Rat 1-6 ([2]; i.g. (p.o.) 50 mg/kg, 720 min): 0.00 µg/mL
Concentration (µg/mL), Rat 1-6 ([2]; i.p. 75 mg/kg, 5 min, 75 mg/kg): 19.30 µg/mL and 7.13 µg/mL and 18.64 µg/mL and 19.28 µg/mL and 27.99 µg/mL and 6.53 µg/mL
Concentration (µg/mL), Rat 1-6 ([2]; i.p. 75 mg/kg, 10 min, 75 mg/kg): 1.87 µg/mL and 10.07 µg/mL and 25.59 µg/mL and 23.48 µg/mL and 28.46 µg/mL and 16.26 µg/mL
Concentration (µg/mL), Rat 1-6 ([2]; i.p. 75 mg/kg, 20 min, 75 mg/kg): 11.09 µg/mL and 11.74 µg/mL and 26.19 µg/mL and 23.50 µg/mL and 27.24 µg/mL and 19.13 µg/mL
Concentration (µg/mL), Rat 1-6 ([2]; i.p. 75 mg/kg, 30 min, 75 mg/kg): 14.88 µg/mL and 11.12 µg/mL and 27.78 µg/mL and 24.20 µg/mL and 24.44 µg/mL and 16.88 µg/mL
Concentration (µg/mL), Rat 1-6 ([2]; i.p. 75 mg/kg, 45 min, 75 mg/kg): 19.20 µg/mL and 12.48 µg/mL and 25.65 µg/mL and 17.91 µg/mL and 19.27 µg/mL and 11.96 µg/mL
Concentration (µg/mL), Rat 1-6 ([2]; i.p. 75 mg/kg, 60 min, 75 mg/kg): 19.81 µg/mL and 12.19 µg/mL and 20.94 µg/mL and 14.34 µg/mL and 14.91 µg/mL and 8.72 µg/mL
Concentration (µg/mL), Rat 1-6 ([2]; i.p. 75 mg/kg, 90 min, 75 mg/kg): 15.76 µg/mL and 11.35 µg/mL and 14.35 µg/mL and 10.26 µg/mL and 9.01 µg/mL and 6.43 µg/mL
Concentration (µg/mL), Rat 1-6 ([2]; i.p. 75 mg/kg, 120 min, 75 mg/kg): 11.54 µg/mL and 12.02 µg/mL and 9.79 µg/mL and 9.54 µg/mL and 5.23 µg/mL and 5.75 µg/mL
Concentration (µg/mL), Rat 1-6 ([2]; i.p. 75 mg/kg, 180 min, 75 mg/kg): 4.99 µg/mL and 7.71 µg/mL and 5.09 µg/mL and 5.86 µg/mL and 3.06 µg/mL and 4.52 µg/mL
Concentration (µg/mL), Rat 1-6 ([2]; i.p. 75 mg/kg, 240 min, 75 mg/kg): 2.45 µg/mL and 4.34 µg/mL and 2.43 µg/mL and 3.35 µg/mL and 1.30 µg/mL and 3.21 µg/mL
Concentration (µg/mL), Rat 1-6 ([2]; i.p. 75 mg/kg, 300 min): 0.00 µg/mL
Concentration (µg/mL), Rat 1-6 ([2]; i.p. 75 mg/kg, 360 min): 0.00 µg/mL
Concentration (µg/mL), Rat 1-6 ([2]; i.p. 75 mg/kg, 540 min): 0.00 µg/mL
Concentration (µg/mL), Rat 1-6 ([2]; i.p. 75 mg/kg, 720 min): 0.00 µg/mL
Concentration (µg/mL), Rat 1-6 ([2]; i.v. 50 mg/kg, 5 min, 50 mg/kg): 9.46 µg/mL and 10.58 µg/mL and 13.45 µg/mL and 12.78 µg/mL and 6.12 µg/mL and 10.60 µg/mL
Concentration (µg/mL), Rat 1-6 ([2]; i.v. 50 mg/kg, 10 min, 50 mg/kg): 6.51 µg/mL and 8.18 µg/mL and 10.41 µg/mL and 9.22 µg/mL and 4.69 µg/mL and 7.90 µg/mL
Concentration (µg/mL), Rat 1-6 ([2]; i.v. 50 mg/kg, 20 min, 50 mg/kg): 5.61 µg/mL and 4.71 µg/mL and 7.76 µg/mL and 8.22 µg/mL and 3.57 µg/mL and 6.00 µg/mL
Concentration (µg/mL), Rat 1-6 ([2]; i.v. 50 mg/kg, 30 min, 50 mg/kg): 5.18 µg/mL and 4.54 µg/mL and 7.54 µg/mL and 6.66 µg/mL and 2.58 µg/mL and 5.30 µg/mL
Concentration (µg/mL), Rat 1-6 ([2]; i.v. 50 mg/kg, 45 min, 50 mg/kg): 4.49 µg/mL and 3.33 µg/mL and 5.77 µg/mL and 5.41 µg/mL and 1.92 µg/mL and 4.23 µg/mL
Concentration (µg/mL), Rat 1-6 ([2]; i.v. 50 mg/kg, 60 min, 50 mg/kg): 4.16 µg/mL and 4.12 µg/mL and 5.48 µg/mL and 5.26 µg/mL and 1.05 µg/mL and 4.00 µg/mL
Concentration (µg/mL), Rat 1-6 ([2]; i.v. 50 mg/kg, 90 min, 50 mg/kg): 3.20 µg/mL and 2.30 µg/mL and 5.38 µg/mL and 4.50 µg/mL and 1.00 µg/mL and 3.80 µg/mL
Concentration (µg/mL), Rat 1-6 ([2]; i.v. 50 mg/kg, 120 min, 50 mg/kg): 2.84 µg/mL and 1.19 µg/mL and 2.49 µg/mL and 2.30 µg/mL and 0.80 µg/mL and 3.40 µg/mL
Concentration (µg/mL), Rat 1-6 ([2]; i.v. 50 mg/kg, 180 min, 50 mg/kg): 1.87 µg/mL and 1.30 µg/mL and 1.80 µg/mL and 1.60 µg/mL and 0.73 µg/mL and 1.45 µg/mL
Concentration (µg/mL), Rat 1-6 ([2]; i.v. 50 mg/kg, 240 min, 50 mg/kg): 1.80 µg/mL and 1.24 µg/mL and 1.65 µg/mL and 1.50 µg/mL and 0.62 µg/mL and 1.34 µg/mL
Concentration (µg/mL), Rat 1-6 ([2]; i.v. 50 mg/kg, 300 min, 50 mg/kg): 1.29 µg/mL and 1.17 µg/mL and 1.70 µg/mL and 1.27 µg/mL and 0.51 µg/mL and 1.20 µg/mL
Concentration (µg/mL), Rat 1-6 ([2]; i.v. 50 mg/kg, 360 min, 50 mg/kg): 1.00 µg/mL and 0.90 µg/mL and 0.80 µg/mL and 0.72 µg/mL and 0.40 µg/mL and 0.71 µg/mL
Concentration (µg/mL), Rat 1-6 ([2]; i.v. 50 mg/kg, 540 min): 0.00 µg/mL
Concentration (µg/mL), Rat 1-6 ([2]; i.v. 50 mg/kg, 720 min): 0.00 µg/mL
